Data taken from publication PMC4268710.
No constants are given. Whether binding was seen depends on the method and setting. For some of these results: In cells and extracts the contact can be indirect. Some results given as binding are weak or reduced against the parent protein; the word gives no strength. Sequences can lack the tags named with a protein. Each block holds one binder with its values, some of them ahead of it.

Key:
[1] = biological target: T1, HA-tagged OM14 (S. cerevisiae) (UniProt P38325); assay: co-IP; lysate of yeast with HA-tagged OM14 (0.1% NP-40) loaded on an anti-HA sepharose column, eluted with 0.1 M acetic acid pH 3, western blot; strain with untagged OM14 as control
T1 sequence: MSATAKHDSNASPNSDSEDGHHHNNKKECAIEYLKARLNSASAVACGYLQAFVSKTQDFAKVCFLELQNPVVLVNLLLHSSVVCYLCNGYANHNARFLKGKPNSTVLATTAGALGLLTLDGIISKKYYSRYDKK

[2] = biological target: T2, His6-EGD2 of the yeast NAC complex purified from bacteria (yeast) (UniProt P38879); assay: SEC; EGD2 and EGD1 co-expressed in E. coli, Ni column by the His6 tag of EGD2, then Superdex 200 in 20 mM Tris pH 7, 50 mM NaCl, 5 mM MgCl2; both purified
T2 sequence: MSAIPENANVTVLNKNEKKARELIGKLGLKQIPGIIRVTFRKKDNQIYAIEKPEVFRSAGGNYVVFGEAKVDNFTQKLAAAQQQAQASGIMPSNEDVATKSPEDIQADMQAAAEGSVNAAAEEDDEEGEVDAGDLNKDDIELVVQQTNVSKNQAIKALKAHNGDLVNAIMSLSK

[3] = biological target: T3, Egd1 (beta-subunit of NAC) fused to a DHFR fragment (S. cerevisiae) (UniProt Q02642); assay: split reporter; split DHFR protein complementation assay in diploid yeast; Egd1 or Egd2 as bait with F[1,2] or F[3], library of the reciprocal mating type as prey; growth on methotrexate, glucose or galactose, 30 °C; colony area >150 as threshold; re-confirmed by mating single strains
T3 sequence: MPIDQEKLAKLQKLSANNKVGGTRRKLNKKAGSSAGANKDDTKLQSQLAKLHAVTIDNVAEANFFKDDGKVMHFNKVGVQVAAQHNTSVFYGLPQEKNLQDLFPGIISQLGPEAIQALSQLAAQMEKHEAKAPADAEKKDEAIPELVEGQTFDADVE

[4] = biological target: T4, Egd2 (alpha-subunit of NAC) fused to a DHFR fragment (S. cerevisiae) (UniProt P38879); assay: as above
T4 sequence: T2 sequence

binding [1]: no binding
B1: HXK1 (endogenous) (protein, UniProt P04806 1-485)
chain: MVHLGPKKPQARKGSMADVPKELMDEIHQLEDMFTVDSETLRKVVKHFIDELNKGLTKKGGNIPMIPGWVMEFPTGKESGNYLAIDLGGTNLRVVLVKLSGNHTFDTTQSKYKLPHDMRTTKHQEELWSFIADSLKDFMVEQELLNTKDTLPLGFTFSYPASQNKINEGILQRWTKGFDIPNVEGHDVVPLLQNEISKRELPIEIVALINDTVGTLIASYYTDPETKMGVIFGTGVNGAFYDVVSDIEKLEGKLADDIPSNSPMAINCEYGSFDNEHLVLPRTKYDVAVDEQSPRPGQQAFEKMTSGYYLGELLRLVLLELNEKGLMLKDQDLSKLKQPYIMDTSYPARIEDDPFENLEDTDDIFQKDFGVKTTLPERKLIRRLCELIGTRAARLAVCGIAAICQKRGYKTGHIAADGSVYNKYPGFKEAAAKGLRDIYGWTGDASKDPITIVPAEDGSGAGAAVIAALSEKRIAEGKSLGIIGA

binding [2]: binds
B2: EGD1 of the yeast NAC complex purified from bacteria (protein, UniProt Q02642 1-157)
chain: T3 sequence

binding [3]: binds
binding [4]: binds
B3: OM14 fused to a DHFR fragment (prey of the DHFR PCA library) (protein, UniProt P38325 1-134)
chain: T1 sequence
